From patent KR20220160483A
No constants are given. Whether binding was seen depends on the method and setting. Some results given as binding are weak or reduced against the parent protein; the word gives no strength.

T1: 재조합 인간 ASM(acid sphingomyelinase) 단백질 (human) (UniProt P17405)
T1 sequence: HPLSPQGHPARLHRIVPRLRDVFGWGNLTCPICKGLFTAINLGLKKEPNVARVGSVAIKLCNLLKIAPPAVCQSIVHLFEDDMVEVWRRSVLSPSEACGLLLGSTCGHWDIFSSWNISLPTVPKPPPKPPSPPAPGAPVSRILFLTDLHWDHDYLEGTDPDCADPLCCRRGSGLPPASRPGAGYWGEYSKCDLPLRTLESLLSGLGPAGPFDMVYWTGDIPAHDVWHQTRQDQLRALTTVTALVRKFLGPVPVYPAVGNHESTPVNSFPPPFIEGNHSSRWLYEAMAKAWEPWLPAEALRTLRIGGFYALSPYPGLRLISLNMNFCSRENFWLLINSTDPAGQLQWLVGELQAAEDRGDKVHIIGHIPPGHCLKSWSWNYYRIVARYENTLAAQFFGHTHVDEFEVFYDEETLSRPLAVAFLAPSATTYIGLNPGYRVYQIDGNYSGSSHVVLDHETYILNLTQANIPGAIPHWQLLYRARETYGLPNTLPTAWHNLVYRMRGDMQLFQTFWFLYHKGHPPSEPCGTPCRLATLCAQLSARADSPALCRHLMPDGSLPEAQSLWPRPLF

T2: 재조합 마우스 ASM(acid sphingomyelinase) 단백질 (mouse) (UniProt Q04519)
T2 sequence: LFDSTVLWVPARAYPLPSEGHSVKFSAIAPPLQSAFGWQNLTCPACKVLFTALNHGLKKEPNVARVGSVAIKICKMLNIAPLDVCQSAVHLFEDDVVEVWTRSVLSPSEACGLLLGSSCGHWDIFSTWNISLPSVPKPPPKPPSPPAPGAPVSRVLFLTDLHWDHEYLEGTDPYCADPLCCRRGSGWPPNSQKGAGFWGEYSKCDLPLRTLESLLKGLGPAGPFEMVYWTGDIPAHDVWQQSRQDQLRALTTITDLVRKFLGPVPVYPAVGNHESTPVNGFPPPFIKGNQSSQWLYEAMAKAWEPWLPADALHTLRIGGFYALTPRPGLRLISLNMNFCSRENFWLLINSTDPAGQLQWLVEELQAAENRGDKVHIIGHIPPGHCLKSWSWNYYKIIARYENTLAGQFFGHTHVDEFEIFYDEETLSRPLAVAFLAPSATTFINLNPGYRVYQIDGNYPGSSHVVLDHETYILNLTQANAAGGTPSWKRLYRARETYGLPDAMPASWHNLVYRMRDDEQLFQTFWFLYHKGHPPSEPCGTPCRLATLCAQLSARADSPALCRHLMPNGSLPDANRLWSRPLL


Columns and labels:
[1] = target: T1, 재조합 인간 ASM(acid sphingomyelinase) 단백질 (human); assay: BLI (Octet QK384)
[2] = target: T1, 재조합 인간 ASM(acid sphingomyelinase) 단백질 (human); assay: HDX-MS epitope mapping
[3] = target: T1, 재조합 인간 ASM(acid sphingomyelinase) 단백질 (human); assay: ELISA on recombinant human ASM
[4] = target: T2, 재조합 마우스 ASM(acid sphingomyelinase) 단백질 (mouse); assay: BLI (Octet QK384), mouse ASM on AR2G sensor; RMax 0.0185, Full R2 0.5527
[5] = target: T2, 재조합 마우스 ASM(acid sphingomyelinase) 단백질 (mouse); assay: BLI (Octet QK384)
[6] = target: T2, 재조합 마우스 ASM(acid sphingomyelinase) 단백질 (mouse); assay: BLI (Octet QK384), mouse ASM on AR2G sensor; RMax 0, Full R2 0

binding [1] | binding [2] | binding [3] | binding [4] | binding [5] | binding [6] | Binder
binds | binds | binds | – | – | – | #9108 항체 (antibody, mouse IgG1, V domains shown) VH: EVQLLESGGGLVQPGGSLRLSCAASGFTFSNYAMSWVRQAPGKGLEWVSAIYPGGGSIYYADSVKGRFTISRDNSKNTLYLQMNSLRAEDTAVYYCARDVLGLTPKPFDYWGQGTLVTVSS VL: QSVLTQPPSASGTPGQRVTLSCTGSSSNIGSNTVYWYQQLPGTAPKLLIYANSQRPSGVPDRFSGSKSGTSASLAISGLRSEDEADYYCGSWDYSLSGYVFGGGTKLTVLG
binds | binds | – | – | – | no binding (tested: 10 nM) | #9113 항체 (antibody, mouse IgG1, V domains shown) VH: EVQLLESGGGLVQPGGSLRLSCAASGFTFSSYYMSWVRQAPGKGLEWVSSISPGGSSIYYADSVKGRFTISRDNSKNTLYLQMNSLRAEDTAVYYCAKGASLFDYWGQGTLVTVSS VL: QSVLTQPPSASGTPGQRVTISCSGSSSNIGNNAVSWYQQLPGTAPKLLIYSDNKRPSGVPDRFSGSKSGTSASLAISGLRSEDEADYYCGTWDASLNAYVFGGGTKLTVLG

Continued, binder first:

Binder | binding [1] | binding [2] | binding [3] | binding [4] | binding [5] | binding [6]
#9101 항체 (antibody, mouse IgG1, V domains shown) VH: EVQLLESGGGLVQPGGSLRLSCAASGFTFSNYAMSWVRQAPGKGLEWVSGIYPNGGNKYYADSVKGRFTISRDNSKNTLYLQMNSLRAEDTAVYYCAKNAYRFDYWGQGTLVTVSS VL: QSVLTQPPSASGTPGQRVTISCSGSSSNIGNNYVSWYQQLPGTAPKLLIYADSKRPSGVPDRFSGSKSGTSASLAIGGLRSEDEADYYCGSWDYSLNAYVFGGGTKLTVLG | binds | binds | binds | no binding (tested: 10 nM) | – | –
#9104 항체 (antibody, mouse IgG1, V domains shown) VH: EVQLLESGGGLVQPGGSLRLSCAASGFTFSNYYMSWVRQAPGKGLEWVSGIYYGSGNIYYADSVKGRFTISRDNSKNTLYLQMNSLRAEDTAVYYCARDTPGFDYWGQGTLVTVSS VL: QSVLTQPPSASGTPGQRVTISCTGSSSNIGNNAVNWYQQLPGTAPKLLIYYDSHRPSGVPDRFSGSKSGTSASLAISGLRSEDEADYYCGAWDYSLSAYVFGGGTKLTVLG | binds | binds | binds | – | binds | –
